## Primary screen of a compound library

Amino acid sequences for entries named in this document (tags omitted). Residues count along the entry.
UniProt A4I591, 1-473: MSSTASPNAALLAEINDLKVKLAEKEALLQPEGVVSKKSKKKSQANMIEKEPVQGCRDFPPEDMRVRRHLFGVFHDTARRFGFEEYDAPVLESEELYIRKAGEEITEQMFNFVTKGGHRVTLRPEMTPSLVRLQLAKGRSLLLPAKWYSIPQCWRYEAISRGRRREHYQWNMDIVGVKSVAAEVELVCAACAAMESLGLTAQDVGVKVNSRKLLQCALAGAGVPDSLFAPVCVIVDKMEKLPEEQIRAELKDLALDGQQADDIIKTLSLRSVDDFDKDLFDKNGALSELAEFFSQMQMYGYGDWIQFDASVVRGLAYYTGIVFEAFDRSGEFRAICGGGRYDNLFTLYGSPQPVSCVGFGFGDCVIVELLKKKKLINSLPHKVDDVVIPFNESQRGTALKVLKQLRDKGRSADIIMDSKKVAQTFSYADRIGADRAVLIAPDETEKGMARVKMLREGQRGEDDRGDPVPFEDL
UniProt Q4DA54, 1-478: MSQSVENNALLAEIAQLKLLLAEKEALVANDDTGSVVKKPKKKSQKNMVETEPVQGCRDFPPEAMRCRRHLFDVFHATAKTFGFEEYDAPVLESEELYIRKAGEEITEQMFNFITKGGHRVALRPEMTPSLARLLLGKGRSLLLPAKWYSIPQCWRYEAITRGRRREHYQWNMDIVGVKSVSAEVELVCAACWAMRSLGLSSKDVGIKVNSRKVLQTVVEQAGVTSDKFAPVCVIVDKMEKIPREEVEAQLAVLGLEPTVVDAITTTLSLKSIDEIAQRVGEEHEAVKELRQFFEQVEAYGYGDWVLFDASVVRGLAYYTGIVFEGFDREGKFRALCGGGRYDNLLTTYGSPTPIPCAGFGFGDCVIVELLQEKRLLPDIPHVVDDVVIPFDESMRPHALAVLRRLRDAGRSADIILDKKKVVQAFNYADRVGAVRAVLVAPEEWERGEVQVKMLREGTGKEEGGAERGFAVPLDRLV
UniProt P9WPC5, whole entry: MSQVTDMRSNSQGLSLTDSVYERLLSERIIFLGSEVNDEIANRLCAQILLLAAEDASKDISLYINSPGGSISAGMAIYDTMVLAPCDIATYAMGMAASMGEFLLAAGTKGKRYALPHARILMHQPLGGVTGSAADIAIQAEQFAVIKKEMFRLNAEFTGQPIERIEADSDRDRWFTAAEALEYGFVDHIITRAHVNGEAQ
UniProt P9WPC3, whole entry partner: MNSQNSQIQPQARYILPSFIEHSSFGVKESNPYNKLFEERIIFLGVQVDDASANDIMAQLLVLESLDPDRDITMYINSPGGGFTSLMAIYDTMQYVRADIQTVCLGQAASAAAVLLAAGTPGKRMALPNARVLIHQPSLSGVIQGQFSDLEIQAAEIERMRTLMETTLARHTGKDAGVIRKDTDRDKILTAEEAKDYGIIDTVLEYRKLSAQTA

The values are deposited in ChEMBL (CHEMBL3988442, “University of Dundee, Small-Polar-MMV Screening Library” (2021)).

LiHisRS: 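Histidine-tRNA ligase, Leishmania infantum (UniProt A4I591). Enzyme assay of histidyl-tRNA synthetase; the read-out is not stated. Compounds at 30 µM. Higher reads as stronger inhibition (inferred: compounds with an IC50 in retests scored well above the rest). The assay is labelled LdHisRS but filed under L. infantum. About 69,000 compounds were tested under these conditions; 0.6% (about 410) showed 50% or more at least once.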
TcHisRS: 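Enzyme assay of histidyl-tRNA synthetase; the read-out is not stated. Target: Histidine-tRNA ligase, Trypanosoma cruzi CL Brener (UniProt Q4DA54). Compounds at 30 µM. The record gives no direction; compounds that gave an IC50 in retests scored well above the rest, so higher reads as stronger inhibition. Of about 69,000 compounds tested this way, about 31 (0.045%) reached 50% or more in at least one test.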
ClpP1P2: 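Protease assay of ClpP1P2, read by the AMC dye that it sets free. Target: ClpP1P2, Mycobacterium tuberculosis (UniProt P9WPC5 and UniProt P9WPC3). Tested at 50 µM. Higher reads as stronger inhibition, judged from the few compounds that gave an IC50. Most other retested compounds had strongly negative values. Size under these conditions: about 69,000 compounds, about 10 of them at 50% or above in at least one test.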

The filed quantity is “Percent Effect” (%). The record does not define 0% and 100%; most values in the screen are far below 50% and negative numbers occur (in some assays of this library far below -100). Compounds were drawn at random from those tested, without regard to their results.

SMILES | LiHisRS | TcHisRS | ClpP1P2
Cc1nc(C)n(CC2CCCN(CCOc3ccc(C#N)cc3)C2)n1 (stereo not drawn) | 13.56% | 3.429% | 5.645%
CC(NC(=O)N1CCC1)c1ccc(S(N)(=O)=O)cc1 (stereo not drawn) | 19.47% | 3.571% | 6.526%
CC(C)CN1C(=O)C2(CCCC2)NC1c1c[nH]nc1-c1cccnc1 (stereo not drawn) | -4.464% | 3.448% | -4.262%
O=c1[nH]nc(CCCN2CCOCC2)n1Cc1cccc(F)c1 | 9.79% | 9.453% | 24.27%
CCC(C)C(=O)NCCc1nc(C(F)(F)F)cs1 (stereo not drawn) | 15.32% | 10% | 2.482%
O=C(O)C1(O)CCN(c2ccnc3c(C(F)(F)F)cccc23)CC1 | 14.63% | 6.25% | 1.799%
CN(C)Cc1cn2c(n1)CN(CC1CCCC1)CC2 | 27.63% | 6.522% | -6.737%
Cc1nc(C)n(CC2CCCN(CCCc3ccccc3)C2)n1 (stereo not drawn) | 14.04% | 2.006% | 13.72%
COc1ccccc1[C@@H]1CN(Cc2cc(C(C)(C)C)[nH]n2)C[C@H]1C(=O)O | 18.27% | 3.252% | 5.965%
CN(C)CCCNC(=O)c1ccccc1NC(=O)c1ccccc1Cl | 19.57% | 5.941% | -1.193%
O=C(c1cccnc1N1CCN(Cc2ccoc2)CC1)N1CCCCC1 | 21.6% | 3.518% | -5.599%
Cn1cnnc1S(=O)(=O)C1CCN(S(=O)(=O)c2ccc(Cl)s2)CC1 | 7.692% | 4.819% | -8.754%
Cc1ccc(SC2CCCC2)c(C(=O)NCCO)c1 | 13.16% | 5.263% | -7.648%
c1csc(CN2CCC3(CCCN(c4nncs4)C3)C2)n1 (stereo not drawn) | 22.37% | 6.522% | -8.979%
CC(C)Cc1noc(COc2ccc(N(C)C(N)=O)cc2)n1 | 13.79% | -0.5236% | 5.522%
CN(C)Cc1ccnc(NS(=O)(=O)CCc2ccccc2)c1 | 18.31% | 10.83% | -0.7294%
CCCn1nccc1C(=O)N1CCCN(CCCc2ccccc2)CC1 | 19.05% | 4.959% | -6.843%
Cc1ccc2cc(C(=O)N3CCS(=O)(=O)CC3)[nH]c2c1 | 23.4% | 7.514% | -7.306%
Cn1cc(-c2cnc3n2CCC32CCN(S(C)(=O)=O)CC2)cn1 | 1.01% | 5.806% | 14.39%
Fc1cnc(N2CCN3C[C@H](Oc4cccnc4)C[C@H]3C2)nc1 | 9.615% | 2.793% | -2.197%
O=C(c1cnc(-c2cccs2)s1)N1CCCC(n2cccn2)C1 (stereo not drawn) | 16.67% | 9.023% | 7.722%
CN1CC(Nc2nc3c(cnn3C(C)(C)C)c(=O)[nH]2)CCC1=O (stereo not drawn) | 11.43% | 3.093% | -1.84%
CN(Cc1ccco1)Cc1ccccc1CNC(=O)c1cnc[nH]1 | 15.07% | 6.897% | -5.303%
CC(C)c1nnc(CN2CCN(CC(O)c3ccccc3)CC2)o1 (stereo not drawn) | 8.929% | 6.34% | -25.49%
CCCn1cc2c(C(F)F)cc(SCC(=O)O)nc2n1 | 20.62% | 3.468% | 1.329%
COc1cc(C)nc(N2CCN(C(=O)CCc3cscn3)CC2)n1 | 11.54% | 5% | -17.93%
COc1ccc(C(=O)N2CCO[C@H]3[C@H](OCC4CC4)CC[C@@H]32)cc1F | 3.448% | 1.266% | -8.546%
Cc1cc(C(=O)N[C@H]2COC[C@@H]2N2CCOCC2)c2ccc(F)cc2n1 | 10.53% | 5.028% | -6.092%
CCOc1cccc(CNC(=O)N2CCC(Cc3cnn(C)c3)C2)c1 (stereo not drawn) | 14.68% | 7.647% | -23.92%
CC(C)CCC(C)NC(=O)Nc1ccccn1 (stereo not drawn) | 8.901% | 5.882% | -0.5909%
Cc1ccc(CS(=O)(=O)N2Cc3c(CN(C)C)nn(C)c3C2)cc1 | 19.8% | 6.533% | 1.508%
Clc1ccccc1CCn1ccnc1-c1cn(C2CCNCC2)nn1 | 20% | 15.08% | 1.77%
Cc1nn(C)c(Cl)c1C1CCCN1C(=O)c1cccc(C#N)c1 (stereo not drawn) | 16.07% | 8.721% | -7.118%
CCCn1ncc(-c2ccnc(NC3CCCc4ccccc43)n2)c1C (stereo not drawn) | 23.66% | 34.57% | -6.745%
CCC1CN(C(=O)c2ncccc2O)CCC(=O)N1Cc1ccccc1 (stereo not drawn) | 20.97% | 0% | -5.003%
CC(=O)N(C)CC(=O)NCC1CCN(c2cc(Cl)ccc2C)C1 (stereo not drawn) | 8.333% | 2.639% | -11.78%
O=C(Cc1ccc2c(c1)CCC2)NCCNc1ncccn1 | 31.82% | 0% | 5.452%
CC(=O)N1CCc2nc(C3CCN(C(=O)c4ccccc4)C3)ncc2C1 (stereo not drawn) | 9.474% | 6.716% | -0.481%
CCN(C(=O)Cc1ccc(NC(=O)NC2CC2)cc1)c1ccccc1 | 15.09% | -0.8333% | -16.36%
CCc1cnc(CN(C)C2CCN(CCNS(=O)(=O)CC)C2)o1 (stereo not drawn) | 12.39% | 0% | 7.224%
Cc1nnc(NC(=O)N2CCCCC2CCO)s1 (stereo not drawn) | 7.692% | 3.448% | -4.883%
CC(NCc1cccc(Cl)c1)c1ccc(OCC(=O)NC2CC2)cc1 (stereo not drawn) | 16.52% | 3.944% | 4.431%
O=C1NC(c2ccccc2)=N[C@@]12CC[C@@H]1CN(S(=O)(=O)C3CC3)C[C@@H]12 | 19.44% | -0.4975% | -15.39%
CCc1nc(CN(C)C(=O)C2CCC(=O)N(CC3CCCCC3)C2)no1 (stereo not drawn) | 3.125% | 2.235% | -12.5%
Cc1ocnc1C(=O)N1CC[C@@H](O)[C@@H](O)[C@H](N2CCC(F)(F)CC2)C1 | 4.124% | 5.556% | -2.766%
O=C(NCC1CC1)C1CCCN(c2cccc(C(F)(F)F)n2)C1 (stereo not drawn) | 19.35% | 11.04% | -1.464%
CO[C@H]1CN(Cc2ccc(F)cc2)CC[C@@]12CCCO2 | 3.158% | 5.97% | -2.504%
CCC(CO)N(Cc1cccnc1)C(=O)c1ccoc1C (stereo not drawn) | 27.71% | 4.878% | -7.711%
CN(C)C(C(=O)N1CC(c2ccccn2)C1)c1ccc2c(c1)OCO2 (stereo not drawn) | 5.333% | 8.152% | -11%
N#CC1(C(=O)N2CCOC(c3ccc(Cl)cc3)C2)CCCC1 (stereo not drawn) | 10.11% | 5.699% | 6.595%
CN(C)C(=O)COC[C@]12COC[C@H]1CN(Cc1ccoc1)C2 | 15.09% | 1.695% | -2.683%
Cc1cc(-c2cnc(NC3CCCC3)nc2-c2ccoc2)on1 | 15.62% | 4.255% | -4.652%
CN(Cc1ccco1)Cc1ccccc1CNC(=O)c1cc[nH]n1 | 11.54% | 0.8333% | -22.35%
CCC(CC)C(=O)N(C)CC(=O)Nc1ccc(Br)cn1 | 13.79% | 5.65% | -26.59%
CCc1nc(C(=O)N2CCN(CCc3ccc(OC)cc3)CC2)c[nH]1 | 11.67% | 0% | 0.8631%
COc1cccc(-c2cc(NCc3nccn3C)n(C)n2)c1 | 4.839% | 0% | -14.9%
Cc1cccnc1NCCNC(=O)C1CCN(Cc2ccco2)CC1 | -6.061% | 0% | 4.88%
CN(C)C(=O)CNC(=O)CCn1ncc2c(Cl)cccc21 | 17.48% | -4.918% | 3.779%
Cc1cnc(-c2nc(O)c3c(n2)CN(C(=O)CC2CCCC2)CC3)cn1 | 2.837% | 1.88% | -14.64%
Cc1cnn(C2CCCN(C(=O)CCc3nccs3)C2)c1 (stereo not drawn) | 0% | 0.7519% | 10.89%
c1ccc(OCCCNCCn2cccn2)cc1 | 8.108% | 2.632% | 3.628%
Cc1cccc(C2(C(=O)NCC3CN(C)CCO3)CC2)c1 (stereo not drawn) | 17.7% | 1.754% | -0.1617%
OCCCNC1CCc2cc3c(cc21)OCCO3 (stereo not drawn) | 15.56% | 7.143% | -6.001%
NC1(C(=O)NCC2CCCN(Cc3ccccc3F)C2)CCCC1 (stereo not drawn) | 6.593% | 3.012% | -7.952%
CN(CCN1CCCCCC1)Cc1cnc(N)nc1 | 10% | 5.682% | -11.3%
N#Cc1ccccc1OCCN1CCC(N2CCNC2=O)CC1 | 9.231% | 0.3831% | 7.24%
O=C(c1ccc2c(c1)CCO2)N1CCN(c2ccc(Cl)cn2)CC1 | 18.64% | 8.293% | -12.22%
N#CC(NC(=O)CCCOc1cccnc1)c1ccccc1Cl (stereo not drawn) | 13.83% | 6.061% | -3.86%
Cc1[nH]ncc1C(=O)N1CCCC(c2cc(C(F)(F)F)[nH]n2)C1 (stereo not drawn) | 6.154% | 2.682% | -0.07268%
CC(C)c1nc(C2CCCN2CCOCC2CC2)no1 (stereo not drawn) | 18.07% | 9.453% | -8.468%
CCc1cc(NC2CCN(S(C)(=O)=O)CC2)n2nc(C)c(C)c2n1 | 8.654% | 4.065% | 6.701%

For reference, 4 entries once more:

Result for CO[C@H]1CN(Cc2ccc(F)cc2)CC[C@@]12CCCO2 was LiHisRS: 3.158%; TcHisRS: 5.97%; ClpP1P2: -2.504%.
Result for c1ccc(OCCCNCCn2cccn2)cc1 was LiHisRS: 8.108%; TcHisRS: 2.632%; ClpP1P2: 3.628%.
Result for N#CC(NC(=O)CCCOc1cccnc1)c1ccccc1Cl (stereo not drawn) was LiHisRS: 13.83%; TcHisRS: 6.061%; ClpP1P2: -3.86%.
Result for O=C(c1cccnc1N1CCN(Cc2ccoc2)CC1)N1CCCCC1 was LiHisRS: 21.6%; TcHisRS: 3.518%; ClpP1P2: -5.599%.